At least one peptide structure holds a part that was inferred or is arguable (an end, a ring closure or a residue).
Assay: Plasma Ang-(1-7) levels by radioimmunoassay at the end of treatment
Type: in vivo
Conditions: plasma concentration of angiotensin-(1-7); MI rats, 24 µg/kg per hour i.v., after 8 weeks; mean ± SEM

CC[C@H](C)[C@H](NC(=O)[C@H](Cc1ccc(O)cc1)NC(=O)[C@@H](NC(=O)[C@H](CCCNC(=N)N)NC(=O)[C@@H](N)CC(=O)O)C(C)C)C(=O)N[C@@H](Cc1c[nH]cn1)C(=O)N1CCC[C@H]1C(=O)O [Ang-(1-7), angiotensin-(1-7)]
[Ang-(1-7)]: 917.8 ± 194.1 ^† pmol/l

Source: patent EP1348440A1, “Use of angiotensin 1-7 for enhancing cardiac function” (Citeq B.V., priority 2002, dated 2003)
